Data reported in article PMC6445228, “Synthesis and biological evaluation of anti-Toxoplasma gondii activity of a novel scaffold of thiazolidinone derivatives” (Journal of Enzyme Inhibition and Medicinal Chemistry, 2017).

tested on: T. gondii RH-2 F tachyzoites; assay: Five-day growth inhibition assay (tachyzoite growth, colorimetric); type: cell-based, Toxoplasma gondii; conditions: not given
Method: Using published methods[8]^,[19], all of the prepared N-substituted thiazolidinones derivatives were evaluated in vitro for (i) host cell cytotoxicity as well as for the ability to inhibit tachyzoite growth over a period of 5 days (Table 1), for (ii) the ability to inhibit tachyzoite invasion of host cells (Figure 1), and for (iii) the ability to inhibit intracellular tachyzoite replication (Figure 2).
Compounds were tested for the ability to inhibit in vitro tachyzoite (T. gondii RH-2 F (50839); ATCC, VA) and human foreskin fibroblast (HFF; ATCC) growth for 120 h using a published colorimetric assay[8]^,[19]. Stock solutions of all compounds were 10 mM in DMSO. Serial 0.5 log10 dilutions (320–0.032 μM) of each compound were tested. Data from three separate experiments were analysed and the IC50, IC90, and TD50 calculated using Calcusyn software (Biosoft, Cambridge, UK). The therapeutic index (TI), a measure of specific anti-T. gondii activity, was calculated with the formula shown under Table 1.
We explored the chemical space and the influence on the biological activity of different groups (substituted aromatic and bicyclic rings) at the lactam NH of the core nucleus. […] In the five-day growth inhibition assay, compounds were added only once, just before addition of tachyzoites, and thus were present for multiple cycles, up to 20, of parasite replication.

| Structure (SMILES) | TI, therapeutic index, TD50/IC50 |
| --- | --- |
| Nc1ccc(S(=O)(=O)Nc2ncccn2)cc1 [Sulfadiazine, reference compound] | 7 |

same assay, conditions: When TD50 ≥320 TI = 320/IC50

| Structure (SMILES) | TI, therapeutic index, TD50/IC50 |
| --- | --- |
| CCCCC(CC)=NN=C1SCC(=O)N1Cc1ccccc1[N+](=O)[O-] [Compound 1, 2-((Heptan-3-ylidene)hydrazono)-3-(2-nitrobenzyl)thiazolidin-4-one] | 12 |
| CC(=NN=C1SCC(=O)N1Cc1ccccc1[N+](=O)[O-])c1cccs1 [Compound 2, 3-(2-Nitrobenzyl)-2-((1-(thiophen-2-yl)ethylidene)hydrazono)thiazolidin-4-one] | 8 |
| CC(=NN=C1SCC(=O)N1Cc1ccccc1[N+](=O)[O-])c1ccc[cH-]1.[Fe+2].c1cc[cH-]c1 [Compound 3, 3-(2-Nitrobenzyl)-2-((1-(ferrocen-2-yl)ethylidene)hydrazono)thiazolidin-4-one] | 21 |
| CCCCC(CC)=NN=C1SCC(=O)N1Cc1cccc([N+](=O)[O-])c1 [Compound 4, 2-((Heptan-3-ylidene)hydrazono)-3–(3-nitrobenzyl)thiazolidin-4-one] | 2 |
| CC(=NN=C1SCC(=O)N1Cc1cccc([N+](=O)[O-])c1)c1cccs1 [Compound 5, 3-(3-Nitrobenzyl)-2-((1-(thiophen-2-yl)ethylidene)hydrazono)thiazolidin-4-one] | 6 |
| CC(=NN=C1SCC(=O)N1Cc1cccc([N+](=O)[O-])c1)c1ccc[cH-]1.[Fe+2].c1cc[cH-]c1 [Compound 6, 3-(3-Nitrobenzyl)-2-((1-(ferrocen-2-yl)ethylidene)hydrazono)thiazolidin-4-one] | 13 |
| CCCCC(CC)=NN=C1SCC(=O)N1Cc1ccc([N+](=O)[O-])cc1 [Compound 7, 2-((Heptan-3-ylidene)hydrazono)-3-(4-nitrobenzyl)thiazolidin-4-one] | 3 |
| CC(=NN=C1SCC(=O)N1Cc1ccc([N+](=O)[O-])cc1)c1ccc[cH-]1.[Fe+2].c1cc[cH-]c1 [Compound 9, 3-(4-Nitrobenzyl)-2-((1-(ferrocen-2-yl)ethylidene)hydrazono)thiazolidin-4-one] | 3 |
| CCCCC(CC)=NN=C1SCC(=O)N1Cc1ccccc1F [Compound 10, 3-(2-Fluorobenzyl)-2-((heptan-3-ylidene)hydrazono)thiazolidin-4-one] | 4 |
| CC(=NN=C1SCC(=O)N1Cc1ccccc1F)c1cccs1 [Compound 11, 3-(2-Fluorobenzyl)-2-((1-(thiophen-2-yl)ethylidene)hydrazono)thiazolidin-4-one] | 3 |
| CC(=NN=C1SCC(=O)N1Cc1ccccc1F)c1ccc[cH-]1.[Fe+2].c1cc[cH-]c1 [Compound 12, 3-(2-Fluorobenzyl)-2-((1-(ferrocen-2-yl)ethylidene)hydrazono)thiazolidin-4-one] | 19 |
| CCCCC(CC)=NN=C1SCC(=O)N1Cc1cccc(F)c1 [Compound 13, 3-(3-Fluorobenzyl)-2-((heptan-3-ylidene)hydrazono)thiazolidin-4-one] | 14 |
| CC(=NN=C1SCC(=O)N1Cc1cccc(F)c1)c1cccs1 [Compound 14, 3-(3-Fluorobenzyl)-2-((1-(thiophen-2-yl)ethylidene)hydrazono)thiazolidin-4-one] | 4 |
| CC(=NN=C1SCC(=O)N1Cc1cccc(F)c1)c1ccc[cH-]1.[Fe+2].c1cc[cH-]c1 [Compound 15, 3-(3-Fluorobenzyl)-2-((1-(ferrocen-2-yl)ethylidene)hydrazono)thiazolidin-4-one] | 40 |
| CCCCC(CC)=NN=C1SCC(=O)N1Cc1ccc(F)cc1 [Compound 16, 3–(4-Fluorobenzyl)-2-((heptan-3-ylidene)hydrazono)thiazolidin-4-one] | 7 |
| CC(=NN=C1SCC(=O)N1Cc1ccc(F)cc1)c1cccs1 [Compound 17, 3-(4-Fluorobenzyl)-2-((1-(thiophen-2-yl)ethylidene)hydrazono)thiazolidin-4-one] | 4 |
| CC(=NN=C1SCC(=O)N1Cc1ccc(F)cc1)c1ccc[cH-]1.[Fe+2].c1cc[cH-]c1 [Compound 18, 3-(4-Fluorobenzyl)-2-((1-(ferrocen-2-yl)ethylidene)hydrazono)thiazolidin-4-one] | 53 |
| CCCCC(CC)=NN=C1SCC(=O)N1Cc1ccccc1Cl [Compound 19, 3-(2-Chlorobenzyl)-2-((heptan-3-ylidene)hydrazono)thiazolidin-4-one] | 2 |
| CC(=NN=C1SCC(=O)N1Cc1ccccc1Cl)c1cccs1 [Compound 20, 3-(2-Chlorobenzyl)-2-((1-(thiophen-2-yl)ethylidene)hydrazono)thiazolidin-4-one] | 2 |
| CC(=NN=C1SCC(=O)N1Cc1ccccc1Cl)c1ccc[cH-]1.[Fe+2].c1cc[cH-]c1 [Compound 21, 3-(2-Chlorobenzyl)-2-((1-(ferrocen-2-yl)ethylidene)hydrazono)thiazolidin-4-one] | 36 |
| CCCCC(CC)=NN=C1SCC(=O)N1Cc1cccc(Cl)c1 [Compound 22, 3-(3-Chlorobenzyl)-2-((heptan-3-ylidene)hydrazono)thiazolidin-4-one] | 9 |
| CC(=NN=C1SCC(=O)N1Cc1cccc(Cl)c1)c1cccs1 [Compound 23, 3-(3-Chlorobenzyl)-2-((1-(thiophen-2-yl)ethylidene)hydrazono)thiazolidin-4-one] | 3 |
| CC(=NN=C1SCC(=O)N1Cc1cccc(Cl)c1)c1ccc[cH-]1.[Fe+2].c1cc[cH-]c1 [Compound 24, 3-(3-Chlorobenzyl)-2-((1-(ferrocen-2-yl)ethylidene)hydrazono)thiazolidin-4-one] | 40 |
| CCCCC(CC)=NN=C1SCC(=O)N1Cc1ccc(Cl)cc1 [Compound 25, 3-(4-Chlorobenzyl)-2-((heptan-3-ylidene)hydrazono)thiazolidin-4-one] | 5 |
| CC(=NN=C1SCC(=O)N1Cc1ccc(Cl)cc1)c1cccs1 [Compound 26, 3-(4-Chlorobenzyl)-2-((1-(thiophen-2-yl)ethylidene)hydrazono)thiazolidin-4-one] | 4 |
| CC(=NN=C1SCC(=O)N1Cc1ccc(Cl)cc1)c1ccc[cH-]1.[Fe+2].c1cc[cH-]c1 [Compound 27, 3-(4-Chlorobenzyl)-2-((1-(ferrocen-2-yl)ethylidene)hydrazono)thiazolidin-4-one] | 32 |
| CCCCC(CC)=NN=C1SCC(=O)N1Cc1cccc2ccccc12 [Compound 28, 2-((Heptan-3-ylidene)hydrazono)-3-(naphthalen-1-ylmethyl)thiazolidin-4-one] | 7 |
| CC(=NN=C1SCC(=O)N1Cc1cccc2ccccc12)c1ccc[cH-]1.[Fe+2].c1cc[cH-]c1 [Compound 30, 3-(Naphthalen-1-ylmethyl)-2-((1-(ferrocen-2-yl)ethylidene)hydrazono)thiazolidin-4-one] | 64 |
| CCCCC(CC)=NN=C1SCC(=O)N1CN1C(=O)c2ccccc2C1=O [Compound 31, 2-((2-((Heptan-3-ylidene)hydrazono)-4-oxothiazolidin-3-yl)methyl)isoindoline-1,3-dione] | 4 |
| CC(=NN=C1SCC(=O)N1CN1C(=O)c2ccccc2C1=O)c1ccc[cH-]1.[Fe+2].c1cc[cH-]c1 [Compound 33, 2-((4-Oxo-2-((1-(ferrocen-2-yl)ethylidene)hydrazono)thiazolidin-3-yl)methyl)isoindoline-1,3-dione] | 2 |
